According to patent US7968080B2 (The Regents of the University of California, priority 2003, dated 2011):
Positions of bridges follow the written chain, without caps; N, C: chain ends. Non-standard residues stand in square brackets, D forms with d. No end group written: not given here.

Experiments:
[1] = general procedure: Fmoc solid-phase peptide synthesis; Rink amide MBHA resin (0.54 mmol/g); HBTU/HOBt/DIEA or PyBOP/HOBt/DIEA; DIC/HOBt for the last residue; settings: whole synthesis
[2] = general procedure: Fmoc solid-phase peptide synthesis; Rink amide resin; HBTU/HOBt/DIEA or PyBOP/HOBt/DIEA; DIC/HOBt for the last residue; settings: whole synthesis, scale 0.2 mmol
[3] = scale of the general procedure 0.1-0.2 mmol

(4-amino)-D-Phe-c[Cys-Tyr-D-Trp-Lys-Val-Cys]-Asp-NH2
crude mass ([1]; scale 0.1 mmol): 115 mg

[dF]CY[dW]KVCD-NH2 (disulfide 2-7)
crude mass [2]: 228 mg

(4-amino-3-iodo)-D-Phe-c[Cys-Tyr-D-Trp-Lys-Val-Cys]-Asp-NH2
isolated mass [1]: 4.1 mg
crude mass ([1]; scale 90 mg peptide resin): 41 mg
crude yield [1, 3]: 64%
isolated yield [1, 3]: 7.4%

(4-amino)-D-Phe-c[Cys-Tyr-D-Trp-Lys-Val-Cys]-D-Asp-NH2
crude mass ([1]; scale 0.2 mmol): 237.7 mg
